# The list shows a part of the results.
# B1: Ovorubin (Pomacea canaliculata), J7I2T6 (protein)
# chain: MFVATSLLLAIATLVVRASPHNYLIMDIEPPKSVSERDILNLLSPLQVKHSFRVTGSTRLLIVIRLDAQSYEKLDEITVPGKVEVIPAVNMADTMERCGVSWPRVELTDDNVTLFESESTLTDVTKEQLKAMLIGYGEHMSGLLQAHRFEYYQAAGATPHRHFVFVNSVPDEIEVFGREGVDIWGGPGEFVVKPQYVTRI
# What was measured:
# Experiment in all cases: glycan array binding signal (z-score within array); higher = stronger binding
# Conditions in all cases: glycan notation: IUPAC condensed, linker removed
# [1] = molecular target: Neu5Ac(a2-8)Neu5Ac
# How it was run: (§1)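 The binding signal is a Z-score computed within each array and averaged over linkers. Arrays of the same protein sequence at different concentrations or buffers were also averaged together. Data originate from 3228 arrays in the Consortium for Functional Glycomics database, kept only where the protein sequence was available.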
# [2] = molecular target: Neu5Ac(a2-8)Neu5Ac(a2-3)Gal(b1-3)GalNAc(b1-4)[Neu5Ac(a2-3)]Gal(b1-4)Glc
# How it was run: as §1
# [3] = molecular target: Neu5Ac(a2-8)Neu5Ac(a2-3)Gal(b1-3)GalNAc(b1-4)[Neu5Ac(a2-8)Neu5Ac(a2-3)]Gal(b1-4)Glc
# How it was run: as §1
# [4] = molecular target: Neu5Ac(a2-8)Neu5Ac(a2-3)Gal(b1-4)Glc
# How it was run: as §1
# [5] = molecular target: Neu5Ac(a2-8)Neu5Ac(a2-3)Gal(b1-4)GlcNAc
# How it was run: as §1
# [6] = molecular target: Neu5Ac(a2-8)Neu5Ac(a2-3)[Gal(b1-3)GalNAc(b1-4)]Gal(b1-4)Glc
# How it was run: as §1
# [7] = molecular target: Neu5Ac(a2-8)Neu5Ac(a2-3)[GalNAc(b1-4)]Gal(b1-4)Glc
# How it was run: as §1
# [8] = molecular target: Neu5Ac(a2-8)Neu5Ac(a2-8)Neu5Ac
# How it was run: as §1
# [9] = molecular target: Neu5Ac(a2-8)Neu5Ac(a2-8)Neu5Ac(a2-3)Gal(b1-4)Glc
# How it was run: as §1
# [10] = molecular target: Neu5Ac(a2-8)Neu5Ac(a2-8)Neu5Ac(a2-3)[Gal(b1-3)GalNAc(b1-4)]Gal(b1-4)Glc
# How it was run: as §1
# [11] = molecular target: Neu5Ac(a2-8)Neu5Ac(a2-8)Neu5Ac(a2-3)[GalNAc(b1-4)]Gal(b1-4)Glc
# How it was run: as §1
# [12] = molecular target: Neu5Ac(a2-8)Neu5Ac(a2-8)Neu5Ac(a2-8)Neu5Ac(a2-3)[GalNAc(b1-4)]Gal(b1-4)Glc
# How it was run: as §1
# [13] = molecular target: Neu5Ac(a2-8)Neu5Gc(a2-3)Gal(b1-4)GlcNAc
# How it was run: as §1
# [14] = molecular target: Neu5Ac(b2-6)Gal(b1-4)GlcNAc
# How it was run: as §1
# [15] = molecular target: Neu5Ac(b2-6)GalNAc
# How it was run: as §1
# [16] = molecular target: Neu5Ac9Ac(a2-3)Gal(b1-3)GlcNAc
# How it was run: as §1
# [17] = molecular target: Neu5Ac9Ac(a2-3)Gal(b1-4)GlcNAc
# How it was run: as §1
# [18] = molecular target: Neu5Ac9Ac(a2-6)Gal(b1-4)GlcNAc
# How it was run: as §1
# [19] = molecular target: Neu5Gc(a2-3)Gal(b1-3)GlcNAc
# How it was run: as §1
# [20] = molecular target: Neu5Gc(a2-3)Gal(b1-3)[Fuc(a1-4)]GlcNAc
# How it was run: as §1
# [21] = molecular target: Neu5Gc(a2-3)Gal(b1-4)Glc
# How it was run: as §1
# [22] = molecular target: Neu5Gc(a2-3)Gal(b1-4)GlcNAc
# How it was run: as §1
# [23] = molecular target: Neu5Gc(a2-3)Gal(b1-4)GlcNAc(b1-3)Gal(b1-4)GlcNAc(b1-2)Man(a1-3)[Neu5Gc(a2-3)Gal(b1-4)GlcNAc(b1-3)Gal(b1-4)GlcNAc(b1-2)Man(a1-6)]Man(b1-4)GlcNAc(b1-4)GlcNAc
# How it was run: as §1
# [24] = molecular target: Neu5Gc(a2-3)Gal(b1-4)[Fuc(a1-3)]GlcNAc
# How it was run: as §1
# [25] = molecular target: Neu5Gc(a2-6)Gal(b1-4)GlcNAc
# How it was run: as §1
# [26] = molecular target: Neu5Gc(a2-6)GalNAc
# How it was run: as §1
# [27] = molecular target: Neu5Gc(a2-8)Neu5Ac(a2-3)Gal(b1-4)GlcNAc
# How it was run: as §1
# [28] = molecular target: Neu5Gc(a2-8)Neu5Gc(a2-3)Gal(b1-4)GlcNAc
# How it was run: as §1
# [29] = molecular target: Neu5Gc(a2-8)Neu5Gc(a2-3)Gal(b1-4)GlcNAc(b1-3)Gal(b1-4)GlcNAc
# How it was run: as §1
# [30] = molecular target: Neu5Gc(a2-8)Neu5Gc(a2-6)Gal(b1-4)GlcNAc
# How it was run: as §1
# [31] = molecular target: Neu5Gc(b2-6)Gal(b1-4)GlcNAc
# How it was run: as §1
binder,measurement,setting,value
B1,glycan array binding signal (z-score),[1],-0.544
same,glycan array binding signal (z-score),[2],0.093
same,glycan array binding signal (z-score),[3],-0.465
same,glycan array binding signal (z-score),[4],0.107
same,glycan array binding signal (z-score),[5],0.058
same,glycan array binding signal (z-score),[6],0.068
same,glycan array binding signal (z-score),[7],-0.457
same,glycan array binding signal (z-score),[8],0.029
same,glycan array binding signal (z-score),[9],0.813
same,glycan array binding signal (z-score),[10],-0.799
same,glycan array binding signal (z-score),[11],-0.746
same,glycan array binding signal (z-score),[12],-0.739
same,glycan array binding signal (z-score),[13],-0.641
same,glycan array binding signal (z-score),[14],-0.146
same,glycan array binding signal (z-score),[15],-0.939
same,glycan array binding signal (z-score),[16],-0.514
same,glycan array binding signal (z-score),[17],0.045
same,glycan array binding signal (z-score),[18],-0.943
same,glycan array binding signal (z-score),[19],-1.27
same,glycan array binding signal (z-score),[20],-0.099
same,glycan array binding signal (z-score),[21],-0.584
same,glycan array binding signal (z-score),[22],-1.17
same,glycan array binding signal (z-score),[23],0.987
same,glycan array binding signal (z-score),[24],0.174
same,glycan array binding signal (z-score),[25],0.032
same,glycan array binding signal (z-score),[26],0.691
same,glycan array binding signal (z-score),[27],-0.622
same,glycan array binding signal (z-score),[28],-0.543
same,glycan array binding signal (z-score),[29],-0.288
same,glycan array binding signal (z-score),[30],-0.56
same,glycan array binding signal (z-score),[31],-0.319

# Exported with tabs: entries from further up.
binder	measurement	setting	value
B1	glycan array binding signal (z-score)	[16]	-0.514
same	glycan array binding signal (z-score)	[17]	0.045

# — the supplement of paper PMC8728848
